Among the data in PMC5539180 are binding values, retold here.

These are yes or no findings as the source states them, for the method shown. Some binding calls cover weakened binding; strength is not graded here.

This assay concerns the target T1, SEUSS-LIKE 2 (Arabidopsis (accession Col-0)) (UniProt Q94BP0).
T1 sequence: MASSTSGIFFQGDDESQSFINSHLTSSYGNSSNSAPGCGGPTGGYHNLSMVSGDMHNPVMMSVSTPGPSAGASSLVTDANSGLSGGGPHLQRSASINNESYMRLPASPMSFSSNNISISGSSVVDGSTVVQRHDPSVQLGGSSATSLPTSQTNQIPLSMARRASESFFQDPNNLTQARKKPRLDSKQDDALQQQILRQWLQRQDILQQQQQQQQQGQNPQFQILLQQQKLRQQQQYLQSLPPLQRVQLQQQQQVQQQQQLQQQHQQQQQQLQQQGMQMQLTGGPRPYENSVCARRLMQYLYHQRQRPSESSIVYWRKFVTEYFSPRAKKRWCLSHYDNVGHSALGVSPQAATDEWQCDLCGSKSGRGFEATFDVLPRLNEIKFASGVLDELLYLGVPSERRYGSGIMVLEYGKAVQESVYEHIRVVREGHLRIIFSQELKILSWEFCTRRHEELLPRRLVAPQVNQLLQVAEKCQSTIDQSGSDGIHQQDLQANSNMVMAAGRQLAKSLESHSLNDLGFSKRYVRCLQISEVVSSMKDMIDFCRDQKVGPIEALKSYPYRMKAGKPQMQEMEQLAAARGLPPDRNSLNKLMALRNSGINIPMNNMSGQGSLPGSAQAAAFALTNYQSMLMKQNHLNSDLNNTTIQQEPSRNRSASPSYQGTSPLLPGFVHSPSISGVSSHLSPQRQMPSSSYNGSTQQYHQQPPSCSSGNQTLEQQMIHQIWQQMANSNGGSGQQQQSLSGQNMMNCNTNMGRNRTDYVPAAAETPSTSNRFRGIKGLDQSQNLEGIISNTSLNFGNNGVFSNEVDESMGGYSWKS
Put plainly: two-hybrid; LexA-based yeast two-hybrid; pLexA-DBD fusions in RFY206(pSH18-34), pB42-AD fusions in EGY48, mated; LEU2 and lacZ reporters; induction medium -His/-Trp/-Ura/-Leu + X-Gal.

B1: LEUNIG (protein, UniProt Q9FUY2 1-931)
chain: MSQTNWEADKMLDVYIHDYLVKRDLKATAQAFQAEGKVSSDPVAIDAPGGFLFEWWSVFWDIFIARTNEKHSEVAASYIETQMIKAREQQLQQSQHPQVSQQQQQQQQQQIQMQQLLLQRAQQQQQQQQQQHHHHQQQQQQQQQQQQQQQQQQQQHQNQPPSQQQQQQSTPQHQQQPTPQQQPQRRDGSHLANGSANGLVGNNSEPVMRQNPGSGSSLASKAYEERVKMPTQRESLDEAAMKRFGDNVGQLLDPSHASILKSAAASGQPAGQVLHSTSGGMSPQVQTRNQQLPGSAVDIKSEINPVLTPRTAVPEGSLIGIPGSNQGSNNLTLKGWPLTGFDQLRSGLLQQQKPFMQSQSFHQLNMLTPQHQQQLMLAQQNLNSQSVSEENRRLKMLLNNRSMTLGKDGLGSSVGDVLPNVGSSLQPGGSLLPRGDTDMLLKLKMALLQQQQQNQQQGGGNPPQPQPQPQPLNQLALTNPQPQSSNHSIHQQEKLGGGGSITMDGSISNSFRGNEQVLKNQSGRKRKQPVSSSGPANSSGTANTAGPSPSSAPSTPSTHTPGDVISMPNLPHSGGSSKSMMMFGTEGTGTLTSPSNQLADMDRFVEDGSLDDNVESFLSQEDGDQRDAVTRCMDVSKGFTFTEVNSVRASTTKVTCCHFSSDGKMLASAGHDKKAVLWYTDTMKPKTTLEEHTAMITDIRFSPSQLRLATSSFDKTVRVWDADNKGYSLRTFMGHSSMVTSLDFHPIKDDLICSCDNDNEIRYWSINNGSCTRVYKGGSTQIRFQPRVGKYLAASSANLVNVLDVETQAIRHSLQGHANPINSVCWDPSGDFLASVSEDMVKVWTLGTGSEGECVHELSCNGNKFQSCVFHPAYPSLLVIGCYQSLELWNMSENKTMTLPAHEGLITSLAVSTATGLVASASHDKLVKLWK
Turning to B1, the binding entry was “binds”.
